# From the supplement of paper PMC6411743
# Protein sequences, listed by entry. Tags and fused reporters are not part of them. Lines headed by an entry give the natural chain unless they say otherwise; changes in a name come on top.
# UniProt Q9Y4A5, whole entry: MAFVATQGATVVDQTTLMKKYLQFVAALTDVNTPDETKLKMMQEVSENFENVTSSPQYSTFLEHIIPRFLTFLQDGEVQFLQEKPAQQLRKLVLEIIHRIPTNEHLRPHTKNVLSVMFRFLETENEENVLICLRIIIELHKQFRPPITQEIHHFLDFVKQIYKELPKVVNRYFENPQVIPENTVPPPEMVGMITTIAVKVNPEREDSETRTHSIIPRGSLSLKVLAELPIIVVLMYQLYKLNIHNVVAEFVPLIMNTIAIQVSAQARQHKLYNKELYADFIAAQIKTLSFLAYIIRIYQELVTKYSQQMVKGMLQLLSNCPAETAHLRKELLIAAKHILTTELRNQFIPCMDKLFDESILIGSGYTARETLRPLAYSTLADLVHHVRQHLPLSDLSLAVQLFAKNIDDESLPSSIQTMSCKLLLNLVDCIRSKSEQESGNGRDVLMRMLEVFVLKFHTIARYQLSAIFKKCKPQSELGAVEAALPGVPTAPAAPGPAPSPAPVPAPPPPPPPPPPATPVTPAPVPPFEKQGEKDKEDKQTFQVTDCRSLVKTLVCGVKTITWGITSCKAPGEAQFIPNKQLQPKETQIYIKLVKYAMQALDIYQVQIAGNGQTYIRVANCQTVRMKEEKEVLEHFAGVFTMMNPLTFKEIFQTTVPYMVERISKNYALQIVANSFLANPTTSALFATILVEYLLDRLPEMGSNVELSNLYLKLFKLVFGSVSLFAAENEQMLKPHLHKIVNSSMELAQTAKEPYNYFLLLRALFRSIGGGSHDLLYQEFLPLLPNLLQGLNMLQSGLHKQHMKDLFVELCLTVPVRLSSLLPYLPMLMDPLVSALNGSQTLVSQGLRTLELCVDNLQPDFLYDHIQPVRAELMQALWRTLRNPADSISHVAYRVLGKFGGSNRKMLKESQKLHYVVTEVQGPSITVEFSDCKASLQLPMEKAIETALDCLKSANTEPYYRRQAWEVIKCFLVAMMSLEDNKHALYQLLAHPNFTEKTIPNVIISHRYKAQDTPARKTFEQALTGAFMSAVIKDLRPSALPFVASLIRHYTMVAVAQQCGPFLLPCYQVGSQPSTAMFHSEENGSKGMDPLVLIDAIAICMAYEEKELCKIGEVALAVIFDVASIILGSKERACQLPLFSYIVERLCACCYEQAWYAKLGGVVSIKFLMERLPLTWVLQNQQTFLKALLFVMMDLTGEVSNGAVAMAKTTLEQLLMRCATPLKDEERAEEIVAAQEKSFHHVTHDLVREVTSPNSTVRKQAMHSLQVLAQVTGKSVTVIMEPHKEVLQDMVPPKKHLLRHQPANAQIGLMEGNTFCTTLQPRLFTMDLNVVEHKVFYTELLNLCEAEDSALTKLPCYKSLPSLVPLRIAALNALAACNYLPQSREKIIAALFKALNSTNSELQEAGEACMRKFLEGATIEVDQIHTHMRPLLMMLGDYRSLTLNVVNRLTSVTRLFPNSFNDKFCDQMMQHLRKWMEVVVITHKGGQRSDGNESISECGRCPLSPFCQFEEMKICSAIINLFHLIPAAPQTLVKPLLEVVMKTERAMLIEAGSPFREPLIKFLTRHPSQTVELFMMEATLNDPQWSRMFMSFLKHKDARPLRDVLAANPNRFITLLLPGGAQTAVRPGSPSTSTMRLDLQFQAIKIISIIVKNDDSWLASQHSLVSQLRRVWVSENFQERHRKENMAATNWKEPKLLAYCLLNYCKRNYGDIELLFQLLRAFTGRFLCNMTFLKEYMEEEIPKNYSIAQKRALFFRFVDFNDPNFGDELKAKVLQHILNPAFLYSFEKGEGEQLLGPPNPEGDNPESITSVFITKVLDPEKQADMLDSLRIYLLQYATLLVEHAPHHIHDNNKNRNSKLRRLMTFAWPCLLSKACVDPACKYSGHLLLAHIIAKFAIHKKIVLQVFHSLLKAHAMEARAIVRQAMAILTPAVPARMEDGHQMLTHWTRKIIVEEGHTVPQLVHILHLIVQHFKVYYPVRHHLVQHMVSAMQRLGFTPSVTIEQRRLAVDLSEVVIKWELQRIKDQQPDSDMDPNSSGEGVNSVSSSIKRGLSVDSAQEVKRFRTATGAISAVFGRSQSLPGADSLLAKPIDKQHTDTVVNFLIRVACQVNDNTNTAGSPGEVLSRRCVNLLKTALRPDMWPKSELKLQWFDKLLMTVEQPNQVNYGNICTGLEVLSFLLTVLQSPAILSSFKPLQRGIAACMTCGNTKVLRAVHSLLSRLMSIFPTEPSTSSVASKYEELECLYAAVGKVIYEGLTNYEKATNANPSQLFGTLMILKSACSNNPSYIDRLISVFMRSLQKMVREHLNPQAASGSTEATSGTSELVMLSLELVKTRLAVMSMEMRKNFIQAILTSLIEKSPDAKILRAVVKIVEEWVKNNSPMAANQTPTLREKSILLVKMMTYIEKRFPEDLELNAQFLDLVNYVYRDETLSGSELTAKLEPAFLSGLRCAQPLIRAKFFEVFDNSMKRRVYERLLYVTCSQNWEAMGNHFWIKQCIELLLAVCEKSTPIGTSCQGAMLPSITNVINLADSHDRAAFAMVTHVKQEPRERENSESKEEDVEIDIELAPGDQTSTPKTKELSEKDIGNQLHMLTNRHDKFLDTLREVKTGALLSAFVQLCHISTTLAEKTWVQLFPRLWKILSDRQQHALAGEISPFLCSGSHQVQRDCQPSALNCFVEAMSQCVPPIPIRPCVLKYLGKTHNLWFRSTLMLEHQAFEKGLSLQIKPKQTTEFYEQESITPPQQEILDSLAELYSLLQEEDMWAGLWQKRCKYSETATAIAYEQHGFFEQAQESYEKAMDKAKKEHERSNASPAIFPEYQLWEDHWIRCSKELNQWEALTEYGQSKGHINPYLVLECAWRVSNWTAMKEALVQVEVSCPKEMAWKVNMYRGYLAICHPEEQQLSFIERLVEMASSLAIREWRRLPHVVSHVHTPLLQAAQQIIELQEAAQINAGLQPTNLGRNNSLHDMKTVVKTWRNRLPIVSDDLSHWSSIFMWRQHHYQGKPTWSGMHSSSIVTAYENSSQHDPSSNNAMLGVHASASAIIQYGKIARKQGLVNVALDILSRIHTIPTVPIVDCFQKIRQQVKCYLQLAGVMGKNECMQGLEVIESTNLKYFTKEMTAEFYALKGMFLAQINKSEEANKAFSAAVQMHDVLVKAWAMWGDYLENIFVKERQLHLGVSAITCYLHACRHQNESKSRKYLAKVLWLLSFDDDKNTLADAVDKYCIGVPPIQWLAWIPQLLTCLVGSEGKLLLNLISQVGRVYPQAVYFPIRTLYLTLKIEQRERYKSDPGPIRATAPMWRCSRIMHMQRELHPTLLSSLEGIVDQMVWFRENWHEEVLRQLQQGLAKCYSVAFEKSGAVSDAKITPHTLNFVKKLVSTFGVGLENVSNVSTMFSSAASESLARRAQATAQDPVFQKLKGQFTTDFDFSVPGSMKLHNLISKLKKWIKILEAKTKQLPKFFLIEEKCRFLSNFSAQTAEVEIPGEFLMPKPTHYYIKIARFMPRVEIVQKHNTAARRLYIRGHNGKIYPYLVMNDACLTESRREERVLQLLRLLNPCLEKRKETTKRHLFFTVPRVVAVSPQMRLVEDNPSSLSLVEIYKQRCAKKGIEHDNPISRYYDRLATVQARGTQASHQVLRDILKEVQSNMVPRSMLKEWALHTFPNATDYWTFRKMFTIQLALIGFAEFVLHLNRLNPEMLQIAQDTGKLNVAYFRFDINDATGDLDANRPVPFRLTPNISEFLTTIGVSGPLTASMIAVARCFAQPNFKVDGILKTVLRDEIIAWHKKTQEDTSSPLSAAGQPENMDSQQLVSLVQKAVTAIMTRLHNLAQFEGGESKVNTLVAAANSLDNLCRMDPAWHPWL
# UniProt Q8WYH8, whole entry: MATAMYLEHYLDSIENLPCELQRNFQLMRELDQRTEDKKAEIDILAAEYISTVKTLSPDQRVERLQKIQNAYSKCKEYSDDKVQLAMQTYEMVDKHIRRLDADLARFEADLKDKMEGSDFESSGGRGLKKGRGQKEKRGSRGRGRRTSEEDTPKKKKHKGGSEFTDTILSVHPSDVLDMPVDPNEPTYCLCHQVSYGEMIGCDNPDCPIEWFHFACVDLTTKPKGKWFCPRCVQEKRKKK
# UniProt O00193: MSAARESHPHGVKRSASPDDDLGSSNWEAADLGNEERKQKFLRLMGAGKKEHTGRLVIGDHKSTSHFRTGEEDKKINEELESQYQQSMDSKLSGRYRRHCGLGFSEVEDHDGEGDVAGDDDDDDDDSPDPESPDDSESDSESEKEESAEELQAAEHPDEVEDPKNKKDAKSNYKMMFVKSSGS
# UniProt P68400, whole entry, looked up: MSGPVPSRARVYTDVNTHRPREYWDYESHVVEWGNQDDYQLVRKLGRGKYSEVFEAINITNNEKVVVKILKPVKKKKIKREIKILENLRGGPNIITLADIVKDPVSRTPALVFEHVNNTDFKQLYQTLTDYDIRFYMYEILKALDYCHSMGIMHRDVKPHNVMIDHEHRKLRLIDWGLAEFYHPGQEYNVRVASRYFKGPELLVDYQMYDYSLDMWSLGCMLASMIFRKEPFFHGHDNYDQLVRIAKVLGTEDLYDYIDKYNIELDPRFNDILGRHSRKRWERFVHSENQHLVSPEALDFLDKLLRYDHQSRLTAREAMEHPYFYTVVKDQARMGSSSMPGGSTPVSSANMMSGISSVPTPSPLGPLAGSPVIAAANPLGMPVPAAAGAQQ
# UniProt O94868: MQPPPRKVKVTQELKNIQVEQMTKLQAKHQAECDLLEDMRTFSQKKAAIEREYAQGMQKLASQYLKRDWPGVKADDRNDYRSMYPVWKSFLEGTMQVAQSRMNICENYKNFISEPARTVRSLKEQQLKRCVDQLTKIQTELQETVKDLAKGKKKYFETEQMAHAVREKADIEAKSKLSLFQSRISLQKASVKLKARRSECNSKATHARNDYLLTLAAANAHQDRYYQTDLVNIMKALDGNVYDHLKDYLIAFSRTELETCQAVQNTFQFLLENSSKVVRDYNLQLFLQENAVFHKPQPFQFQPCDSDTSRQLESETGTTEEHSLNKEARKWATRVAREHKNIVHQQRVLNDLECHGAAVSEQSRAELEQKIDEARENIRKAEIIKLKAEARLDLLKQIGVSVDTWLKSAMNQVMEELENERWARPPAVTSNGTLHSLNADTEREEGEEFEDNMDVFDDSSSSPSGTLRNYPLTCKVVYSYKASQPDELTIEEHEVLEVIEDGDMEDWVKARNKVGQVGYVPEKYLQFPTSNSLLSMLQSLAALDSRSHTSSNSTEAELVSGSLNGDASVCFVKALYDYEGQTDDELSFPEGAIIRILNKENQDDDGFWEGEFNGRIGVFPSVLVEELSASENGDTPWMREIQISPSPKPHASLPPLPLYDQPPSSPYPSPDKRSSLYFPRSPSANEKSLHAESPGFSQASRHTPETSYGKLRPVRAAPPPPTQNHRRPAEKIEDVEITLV
# UniProt P05556, whole entry: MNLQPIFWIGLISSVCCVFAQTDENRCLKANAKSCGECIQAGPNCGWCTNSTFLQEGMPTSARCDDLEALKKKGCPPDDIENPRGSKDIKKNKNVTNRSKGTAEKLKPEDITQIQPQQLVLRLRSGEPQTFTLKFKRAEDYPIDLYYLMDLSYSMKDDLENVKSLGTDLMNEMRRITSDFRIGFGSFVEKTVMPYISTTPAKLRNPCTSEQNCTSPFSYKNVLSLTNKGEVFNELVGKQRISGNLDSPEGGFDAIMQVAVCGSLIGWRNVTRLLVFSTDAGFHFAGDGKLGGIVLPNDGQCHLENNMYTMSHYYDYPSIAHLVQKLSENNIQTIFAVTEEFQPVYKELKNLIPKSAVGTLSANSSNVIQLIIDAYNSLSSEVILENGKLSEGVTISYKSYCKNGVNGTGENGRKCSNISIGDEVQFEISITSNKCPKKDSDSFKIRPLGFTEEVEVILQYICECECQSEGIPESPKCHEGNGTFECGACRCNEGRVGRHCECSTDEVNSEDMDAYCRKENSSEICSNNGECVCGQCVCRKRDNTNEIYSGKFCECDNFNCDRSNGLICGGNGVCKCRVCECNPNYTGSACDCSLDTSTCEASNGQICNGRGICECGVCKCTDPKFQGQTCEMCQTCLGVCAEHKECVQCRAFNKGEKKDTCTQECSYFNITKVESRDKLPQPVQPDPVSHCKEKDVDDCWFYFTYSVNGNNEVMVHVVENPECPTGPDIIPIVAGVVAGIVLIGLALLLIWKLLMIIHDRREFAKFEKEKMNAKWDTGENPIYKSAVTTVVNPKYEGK
# UniProt P36873, whole entry, looked up: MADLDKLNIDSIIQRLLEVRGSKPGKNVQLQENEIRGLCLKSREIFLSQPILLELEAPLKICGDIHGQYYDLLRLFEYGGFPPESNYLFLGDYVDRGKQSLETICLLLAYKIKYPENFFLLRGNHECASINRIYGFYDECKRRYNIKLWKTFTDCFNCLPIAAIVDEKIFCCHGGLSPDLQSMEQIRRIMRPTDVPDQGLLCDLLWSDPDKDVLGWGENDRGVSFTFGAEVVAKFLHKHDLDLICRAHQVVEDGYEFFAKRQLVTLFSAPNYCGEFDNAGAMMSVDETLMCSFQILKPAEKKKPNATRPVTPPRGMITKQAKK
# ± gives the standard deviation of the averaged measurements. The entries are a selection whose mix differs from that of the whole data set.
# Compound: Nc1ncnc2c1ncn2[C@@H]1O[C@H](COP(=O)(O)OP(=O)(O)NP(=O)(O)O)[C@@H](O)[C@H]1O [adenylyl imidodiphosphate]
# Experiment: NP40-soluble protein abundance relative to vehicle (solubility fold change) (ratio); higher = more soluble protein in presence of AMP-PNP
# Method in brief: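 Each value is a fold change relative to the detergent-processed vehicle, calculated per replicate from vsn-normalised intensities. Jurkat crude lysate received eight concentrations (0.1 to 10 mM) for 10 min at room temperature and 3 min at 37 °C, then was solubilised in 0.8% NP40 with benzonase (60 min, 4 °C). The ultracentrifuged supernatant was TMT-labelled and run by LC-MS/MS in three independent experiments.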
Target,NP40-soluble protein abundance (concentration: 1mM),NP40-soluble protein abundance (concentration: 2mM),NP40-soluble protein abundance (concentration: 4mM),NP40-soluble protein abundance (concentration: 6mM),NP40-soluble protein abundance (concentration: 8mM),NP40-soluble protein abundance (concentration: 10mM)
F8VXU5 and related entries (UniProt Q9UBQ0),0.93 ± 0.037,0.853 ± 0.058,0.901 ± 0.035,0.986 ± 0.071,1 ± 0.038,0.95 ± 0.047
E9PGT6 and related entries (UniProt Q99627),1.05 ± 0.036,1.06 ± 0.016,1.04 ± 0.039,0.973 ± 0.049,0.991 ± 0.046,1 ± 0.036
F5GZ78 and related entries (UniProt P49023),1.01 ± 0.055,1.04 ± 0.055,1.03 ± 0.061,0.9664 ± 0.0023,0.956 ± 0.018,0.992 ± 0.075
F2Z2U4 and related entries (UniProt Q9Y4A5),0.998 ± 0.036,0.989 ± 0.082,1.01 ± 0.015,0.994 ± 0.03,1.03 ± 0.036,1 ± 0.055
UniProt E9PSI1,0.965 ± 0.047,0.974 ± 0.046,0.937 ± 0.036,0.946 ± 0.037,0.924 ± 0.03,0.92 ± 0.039
E9PEN0 and related entries (UniProt Q8WYH8),1.001 ± 0.0063,1.03 ± 0.035,0.9865 ± 0.0042,1.02 ± 0.026,1.03 ± 0.035,1.09 ± 0.07
E9PHI4 and related entries (UniProt O94901),1.013 ± 0.0091,1.004 ± 0.0045,0.9999 ± 0.007,0.977 ± 0.027,0.96 ± 0.021,0.98 ± 0.017
E7EPT4 and related entries (UniProt P19404),0.924 ± 0.03,0.961 ± 0.073,0.914 ± 0.025,0.866 ± 0.04,0.881 ± 0.052,0.869 ± 0.052
E9PP50 and related entries (UniProt P23528),1.01 ± 0.018,0.983 ± 0.017,0.949 ± 0.036,0.9734 ± 0.0025,0.957 ± 0.019,0.935 ± 0.044
F5H527 and related entries (UniProt Q76I76),1 ± 0.025,1.03 ± 0.047,1.02 ± 0.044,1.014 ± 0.006,1.01 ± 0.037,1.01 ± 0.028
F5H5U2 and related entries (UniProt Q8NHQ9),1.02 ± 0.02,1.01 ± 0.063,1.06 ± 0.034,1.08 ± 0.024,1.11 ± 0.018,1.11 ± 0.042
F2Z2X0 and related entries (UniProt O00746),1.04 ± 0.023,1.024 ± 0.0089,1.02 ± 0.022,1.04 ± 0.049,1.059 ± 0.0034,1.04 ± 0.047
E9PM92 and related entries (UniProt O00193+E9PM92),1.13 ± 0.04,1.18 ± 0.07,1.07 ± 0.037,1.03 ± 0.029,0.983 ± 0.03,1.02 ± 0.1
F6TB26 and related entries (UniProt Q9Y2W6),0.995 ± 0.032,1.02 ± 0.036,0.999 ± 0.042,0.974 ± 0.039,0.963 ± 0.018,0.981 ± 0.019
E9PMC9 and related entries (UniProt Q7Z589),1.03 ± 0.027,1.03 ± 0.021,1.05 ± 0.022,1.027 ± 0.0091,1.05 ± 0.022,1.11 ± 0.046
E9PLV1 and related entries (UniProt Q9NQV6),1 ± 0.012,0.963 ± 0.055,0.9952 ± 0.0059,0.989 ± 0.021,1 ± 0.034,0.98 ± 0.023
E7EM64 and related entries (UniProt Q7L5N1),0.998 ± 0.019,0.9 ± 0.11,0.981 ± 0.046,0.953 ± 0.011,0.987 ± 0.024,0.936 ± 0.051
E7EW18 and related entries (UniProt P06746),1.07 ± 0.036,1.08 ± 0.048,1.1 ± 0.058,1.13 ± 0.062,1.14 ± 0.047,1.143 ± 0.0084
E7EU96 and related entries (UniProt P68400),0.996 ± 0.042,0.875 ± 0.13,0.9825 ± 0.0096,0.948 ± 0.025,1.04 ± 0.026,0.971 ± 0.037
E9PLL0 and related entries (UniProt Q96EY5),1.04 ± 0.014,1.05 ± 0.042,1.08 ± 0.018,1.07 ± 0.012,1.09 ± 0.038,1.05 ± 0.031
E9PG19 and related entries (UniProt O94868),1.01 ± 0.013,1.03 ± 0.042,1.01 ± 0.046,0.978 ± 0.015,0.948 ± 0.04,0.983 ± 0.038
E9PL57 and related entries (UniProt Q15843),0.955 ± 0.05,0.989 ± 0.007,0.881 ± 0.11,0.8854 ± 0.0082,0.885 ± 0.0097,0.812 ± 0.031
F8VXG7 and related entries (UniProt Q99590),1.08 ± 0.033,1.18 ± 0.12,1.15 ± 0.072,1.22 ± 0.067,1.23 ± 0.094,1.31 ± 0.099
E7EUI6 and related entries (UniProt P05556),0.991 ± 0.026,1.09 ± 0.13,0.968 ± 0.056,0.9706 ± 0.009,0.929 ± 0.026,0.943 ± 0.026
E9PK61 and related entries (UniProt O14681),0.955 ± 0.027,0.925 ± 0.037,0.995 ± 0.068,1.05 ± 0.087,1.1 ± 0.041,1.09 ± 0.074
E5RI98 and related entries (UniProt P06748),0.959 ± 0.13,1.11 ± 0.15,0.987 ± 0.13,1.08 ± 0.11,1.07 ± 0.088,1.12 ± 0.1
F8W1A0 and related entries (UniProt P36873),0.983 ± 0.022,0.928 ± 0.056,0.972 ± 0.014,0.985 ± 0.03,0.986 ± 0.021,0.9667 ± 0.0073
F5H0R1 and related entries (UniProt Q9H6E5),0.994 ± 0.023,1.01 ± 0.039,1.02 ± 0.016,0.973 ± 0.032,0.983 ± 0.024,0.978 ± 0.025
G3V1C3 and related entries (UniProt Q9BZZ5),0.9316 ± 0.002,0.961 ± 0.029,0.928 ± 0.039,0.9692 ± 0.0088,0.96 ± 0.019,0.994 ± 0.049
G3V3G9 (UniProt P40855),0.971 ± 0.014,0.934 ± 0.057,0.9499 ± 0.0071,0.971 ± 0.018,0.975 ± 0.018,0.971 ± 0.018

# Another view of part of the listing above:
Target	NP40-soluble protein abundance (concentration: 1mM)	NP40-soluble protein abundance (concentration: 2mM)	NP40-soluble protein abundance (concentration: 4mM)	NP40-soluble protein abundance (concentration: 6mM)	NP40-soluble protein abundance (concentration: 8mM)	NP40-soluble protein abundance (concentration: 10mM)
E9PK61 and related entries (UniProt O14681)	0.955 ± 0.027	0.925 ± 0.037	0.995 ± 0.068	1.05 ± 0.087	1.1 ± 0.041	1.09 ± 0.074
E5RI98 and related entries (UniProt P06748)	0.959 ± 0.13	1.11 ± 0.15	0.987 ± 0.13	1.08 ± 0.11	1.07 ± 0.088	1.12 ± 0.1
F8W1A0 and related entries (UniProt P36873)	0.983 ± 0.022	0.928 ± 0.056	0.972 ± 0.014	0.985 ± 0.03	0.986 ± 0.021	0.9667 ± 0.0073
F5H0R1 and related entries (UniProt Q9H6E5)	0.994 ± 0.023	1.01 ± 0.039	1.02 ± 0.016	0.973 ± 0.032	0.983 ± 0.024	0.978 ± 0.025
G3V1C3 and related entries (UniProt Q9BZZ5)	0.9316 ± 0.002	0.961 ± 0.029	0.928 ± 0.039	0.9692 ± 0.0088	0.96 ± 0.019	0.994 ± 0.049
G3V3G9 (UniProt P40855)	0.971 ± 0.014	0.934 ± 0.057	0.9499 ± 0.0071	0.971 ± 0.018	0.975 ± 0.018	0.971 ± 0.018
